Screen size: about 53,000 sequences; about 3,700 (7%) were called active.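 How the source made its calls: active means gene knockdowns whose robust z-score for IL-1 alpha signal is at least 2 or at most -2, so actives lie on both sides; inactive means the rest.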 This is one part of the list.

This assay in a line: Components of the Cytosolic LPS Sensing Pathway: Gene Identification via Genome-wide siRNA Screen.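 Further: robust z of the log signal after scaling to non-targeting control siRNA wells of the plate.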 Particulars: RAW264.7 macrophages, IL-1a HTRF, actives lie on both sides, screened at 100 nM (by protocol), cells primed 5 h with Pam3CSK4 first. An outline of the steps:
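Using IL-1a HTRF as read-out, the screen measured release from RAW264.7 cells after 48h siRNA knockdown (100 nM), 5 h Pam3CSK4 priming and 24 h cytosolic LipidA. Values were expressed relative to negative-control wells as robust z-scores.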
For orientation: TR-FRET usually uses a lanthanide donor and a delayed reading to cut background.
For GGUUCACAGUCCAAGCUUCTT against Sytl3, the z-score is inactive: 0.677.

With GGAUACUACAUGAAUCUUATT against Pip5k1a, the z-score was inactive: -0.244.

With GAGUUCCAGUUUAUCCCUUTT against Klra1, the z-score is active: -2.06.

Take GUCUUGCGUGACAACAUCCTT against H4c14: the z-score was inactive: 0.718.

With GGAUAUGGUUAAAGCCAAATT against Zg16, the z-score was inactive: -0.172.

With CGAGCCACACCAAUAGAAGTT against Csnk1g3, the z-score was inactive: -0.42.

GGCAACUGAAUGUUUCCUATT against Nudt19: the z-score was inactive: -1.41.

CGGGAAAGCCAAUACCAUGTT against Whamm: the z-score is inactive: -0.632.

On to AAACUUGGCGUAUCAGGAATT against Gm3696, for which the z-score is inactive: -1.45.

Regarding GGAGCUUAUGUUCAAAAUATT against Nasp, the z-score is inactive: 1.79.

Regarding GGGCUACUUAAUGAGUUACTT against Polg2, the z-score is inactive: 1.03.

Regarding CCAUACAGGGUUAGCUCAUTT against Gm10439, the z-score is inactive: -1.89.

In the case of GGAGAUGGAAGCUAUUUUCTT against Hoxb1, the z-score is inactive: -0.169.

In the case of CCUCUCAGUGGUUGAAAUGTT against Wdr5, the z-score is active: -2.46.

As to GGAUGUCAAAGUCUUUAGUTT against Grb10, the z-score was inactive: 1.22.

For GGAGAAGAUAGUCUGGGUCTT against Bcas3, the z-score is inactive: 0.624.

In the case of CGAUGUCAAUGUACUAAUUTT against Rhov, the z-score is inactive: 0.155.

GGUCAAGUAUGAUGCUGAUTT against Fam185a: the z-score was inactive: -1.38.

GGAAUGACAAGCUGAAGAUTT against Zbtb7b: the z-score was inactive: 0.982.

With GUGAAAACCGCCAGAUGAATT against Vmn1r19, the z-score was inactive: 1.2.

On to GGGAUAUCUAAUCAAAACCTT against St8sia5, for which the z-score is inactive: -0.131.

Regarding CGGCAACCGGCACUAUAAATT against Pnoc, the z-score is inactive: 0.231.

Take GCCGGCAGUAAAGAUUCAUTT against Cog2: the z-score is inactive: 0.938.

In the case of GGAUUUCUUCUUUAUCAAGTT against Lrriq3, the z-score was inactive: -1.11.

For GCCUCCUAGAUGAUAUCAGTT against Socs7, the z-score was inactive: -1.02.

Take GGAAUUAAGAUCACUCACUTT against Cel: the z-score is inactive: -1.94.

Turning to GGAAGGAGAAGGGUAGCAATT against Samd14, the z-score was inactive: 0.909.

With UACCCAUUGUCAAGUUGGATT against Grm4, the z-score was inactive: -0.634.

GGAGUACCUGGACAUUGUGTT against Dus1l: the z-score is inactive: 0.844.

Take GGAACGCAAAGAUGACCGUTT against Rnf20: the z-score was inactive: 1.46.

Take GCAGGUAAAGGCUCUUAUUTT against Rcbtb1: the z-score is inactive: 1.78.

“GGUACCCAUAUGCAGAGGUTT against A830039N20Rik”: the z-score is inactive: -1.24.

CGUGUUAGAAUAAAAACACTT against Acaa2: the z-score is inactive: 0.437.

As for GCUUUGUGUGUUGGUCUCGTT against Aup1, the z-score is inactive: -0.498.

In the case of GGAUUUAUUAGCCUACCUUTT against Ctnna2, the z-score was inactive: 1.26.

As to GGGUUUGCUUUUGUUGAGUTT against Ppie, the z-score was inactive: -1.77.

As to GCCUUACCAUACCAUGGAGTT against Vangl2, the z-score is inactive: -0.546.

As for CCUUAUCUUGGUAUACAAUTT against Eif3a, the z-score was inactive: 0.985.

Turning to CCAGAUAGGUAAAAAACAATT against Acta2, the z-score is inactive: -0.562.

For GGAUCCUCACCAAGAUUACTT against Mrps22, the z-score is inactive: 0.391.

As for GGAAAAUCCCUUGGUGAAATT against Slc5a11, the z-score was inactive: -1.06.

For GGCAUCUCUUCCAAGUUGGTT against Mzt1, the z-score was inactive: 1.69.

On to GGUUUCCAGUGCAUACUUUTT against Taf1b, for which the z-score is inactive: 0.655.

As to GCGAUACUCCUAAAACAUATT against Btnl9, the z-score is inactive: 0.831.

For the sequence CGUGUGUUUUACCCUAAAATT against Zfp947, the z-score was inactive: 0.404.

With GGAUAUGAAAGUUCUUGAUTT against Akr1c21, the z-score is inactive: 1.44.

On to GGUACUGGAACAAAAGAAATT against Stk38l, for which the z-score was inactive: -0.419.

CGGAGUUAACAAGAAGUGATT against Loxl4: the z-score is inactive: -0.255.

For GGAAGAAGUAGCUAAAAACTT against Entpd4, the z-score is inactive: 0.488.

As to CGACAACCACUUCAACUAUTT against Chn2, the z-score was inactive: 1.34.

In the case of GGAGAAAGCAGCAAGUACATT against Olig3, the z-score is inactive: -0.244.

GCCAGUUUGUUACACGCAATT against Fam135a: the z-score is inactive: 1.28.

Turning to GGCUGAAAUAAAACAAGAATT against Use1, the z-score was inactive: -0.778.

GGUCAAUGUACUACUUCUUTT against Olfr659: the z-score is inactive: -0.154.

Consider UCCAUUUAGUUGGUGGAGUTT against Olfr1303, for which the z-score is inactive: 0.817.

With GGAGCUAGGCUGCUCUAUUTT against Serpina9, the z-score was inactive: 0.0986.

As to CCGGGAAAGAACUCCUAAGTT against Wnt8b, the z-score was inactive: 0.0331.

Turning to GGUGUCCUUUCAAGUUGAUTT against Spg11, the z-score is active: 2.15.

For GAAUCCUACGGUUGAAUAUTT against Prmt3, the z-score is inactive: -0.432.

Take GGCUAAAGUCAUCUUCUGGTT against Il20ra: the z-score is inactive: -0.82.

GCACUGAACUUUGUCGAUUTT against Fam122a: the z-score was inactive: 0.325.

As to GGUUCUGUGCAAUUUUUAGTT against Dgcr2, the z-score was inactive: 0.643.

On to GGACGGAUCUUGUAAAUACTT against Ctsl, for which the z-score is inactive: -1.14.

Turning to GCAUCGCUAAGUCCGUCUUTT against Aqp4, the z-score is inactive: -0.1.

On to GGCUUCAUUUUAAUAGUGATT against Zdhhc21, for which the z-score was inactive: 0.00141.

Take GGGAAACUCUGCAUGAGUATT against Tenm1: the z-score is inactive: -0.137.

As to GGGUUUUGUUUUCCUUCUUTT against Usp39, the z-score was inactive: 0.0801.

Consider GGGCUGCUGAUACAAACAATT against Trdmt1, for which the z-score was inactive: 0.0633.

As to GGUUUGCAUUGUCGGCCAUTT against Gls2, the z-score is inactive: -0.8.

With CGAUCCUUCUGUCCUGGAUTT against Tmc8, the z-score was inactive: 1.94.

Regarding GCCUUACUACUACAACAACTT against Prpf40b, the z-score is active: 2.08.

Turning to CCUGGUAGUCAGUUUUUGUTT against Lactb, the z-score is inactive: 0.268.

On to GGUUGGAGAUCUCAUCUAUTT against Exosc3, for which the z-score is inactive: 0.699.

Consider GCUUCUGAUAGAUCAUAAGTT against Aoc3, for which the z-score was inactive: -0.276.

As for GAAGUGUGCCAAGGACUGUTT against Mt3, the z-score is inactive: 0.603.

On to CCUCAAGGCAGUUCAUAUUTT against Zfp790, for which the z-score is inactive: -0.334.

On to GGUGGUUUGAAAAAAGUCATT against Mycbpap, for which the z-score was inactive: -1.63.

GGCAGAGAGCAGAGACAUCTT against Lpcat1: the z-score was inactive: 0.405.

Regarding GGACAUUCUCUACCGAAUATT against Acsm1, the z-score was active: 2.04.

As to GGCUGUCAUUGAGUUUGAGTT against Klrc2, the z-score is inactive: 1.18.

With CCUCUAUCGAGGUUCGUUCTT against Tmem132a, the z-score was inactive: -0.972.

With GGGAUAGGAAACAUACCAATT against Ptk6, the z-score is inactive: -0.686.

Turning to CCUACGCUAUGCCAUAGACTT against Apobec3, the z-score was inactive: 0.456.

Turning to GCAUUGUGCUGAUGUGCGGTT against Ap1ar, the z-score is active: 3.01.

Consider GGGUGUACAUUGAAAUUAATT against Epha4, for which the z-score was inactive: -0.717.

In the case of CCCUGGCAAAUAUCACUGCTT against Dapk2, the z-score is inactive: 0.617.

CCACUAUCAUUAUUUAUGCTT against Xkrx: the z-score was inactive: 0.617.

Take CCUUCUAAACACUUGACUUTT against Ugt2b5: the z-score is inactive: 0.106.

GGAAUUUGUCAAGUUGUAGTT against Pou4f2: the z-score was inactive: -0.442.

For the sequence GGAAUAAGAAGCCACUCUATT against Fam174a, the z-score is inactive: -0.71.

Take GGAGAAAGGCAUCUUCAAATT against Spdef: the z-score is inactive: 0.0302.

Take GGACUGUGUGCAACUGAACTT against Camkk1: the z-score is inactive: -1.42.

GGGAUAUGAAUGGAUAUUCTT against Twf1: the z-score is inactive: 0.266.

For CGUAUAACUAACCUGUUGATT against Vmn1r52, the z-score was inactive: 1.23.

Turning to CCCUCUUGCAGUCAGCUGATT against Rpl41, the z-score is inactive: 0.0843.

Regarding CGGAAGACCCUGAGACUAUTT against Doc2g, the z-score is inactive: 0.793.

In the case of CCACAAUAAUGAGCAGCAGTT against Olfr792, the z-score is inactive: -0.754.

Regarding GCACCAGGCCACAAUUAAUTT against Luzp2, the z-score was inactive: 0.279.

In the case of CGGCCUGGUACCAUCUUAUTT against Antxr2, the z-score was inactive: 0.568.

On to GGAGCUGUAUGAGAUAGAGTT against Zfp566, for which the z-score was active: 4.15.

As to GGGAUACAGGACUAAACGATT against Fgf16, the z-score was inactive: 0.423.

Consider GGAGUCCUCUCUUCACUUCTT against Serpinb9, for which the z-score was inactive: -0.768.

Take GCAAUUCUUGGAGUUCAAATT against Ndc1: the z-score is inactive: -0.149.

As for GGAUAUUGUGGUUUUUAGCTT against Pdc, the z-score is inactive: -0.145.

On to GGUUGUAAAAGACCAUUAATT against St3gal4, for which the z-score is inactive: 0.102.

As to GCUAUUGAGAAACCACUUATT against Rasef, the z-score was inactive: -0.276.

On to GCGGACGGAGGAACUAAUUTT against Arhgef19, for which the z-score is inactive: 0.307.

The record behind these values is PubChem BioAssay AID1508600 (Functional Genomics Laboratory (NCATS/FGL), 2020).
